# Laboratory results reported in the supplement of paper PMC10670038.
# ± gives the standard deviation of the averaged measurements. What follows is the remainder of the data, with few or none of the lowest values.
# Tested on: TE10
# Test: relative cell viability vs DMSO, compound alone (fraction); TE10 is an esophageal squamous carcinoma line; higher = less cytotoxic
# Settings: 2 µM; 48 h
# Protocol: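 TE10 ESCC cells (1,000/well, 384-well plates) were treated with Selleck bioactive library compounds at 2 uM alone for 48 h. Viability was read by CellTiter-Glo and expressed relative to DMSO wells. Two technical replicates (A, B).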
row,SMILES,relative cell viability
1,O=C(O)C1=C[C@@H](O)[C@@H](O)[C@H](O)C1 [Shikimic Acid],1.102 ± 0.0079
